The target in assay [1] is T1, FLAG-Aplp1 full-length, in HEK293FT lysate (UniProt Q03157).
T1 sequence: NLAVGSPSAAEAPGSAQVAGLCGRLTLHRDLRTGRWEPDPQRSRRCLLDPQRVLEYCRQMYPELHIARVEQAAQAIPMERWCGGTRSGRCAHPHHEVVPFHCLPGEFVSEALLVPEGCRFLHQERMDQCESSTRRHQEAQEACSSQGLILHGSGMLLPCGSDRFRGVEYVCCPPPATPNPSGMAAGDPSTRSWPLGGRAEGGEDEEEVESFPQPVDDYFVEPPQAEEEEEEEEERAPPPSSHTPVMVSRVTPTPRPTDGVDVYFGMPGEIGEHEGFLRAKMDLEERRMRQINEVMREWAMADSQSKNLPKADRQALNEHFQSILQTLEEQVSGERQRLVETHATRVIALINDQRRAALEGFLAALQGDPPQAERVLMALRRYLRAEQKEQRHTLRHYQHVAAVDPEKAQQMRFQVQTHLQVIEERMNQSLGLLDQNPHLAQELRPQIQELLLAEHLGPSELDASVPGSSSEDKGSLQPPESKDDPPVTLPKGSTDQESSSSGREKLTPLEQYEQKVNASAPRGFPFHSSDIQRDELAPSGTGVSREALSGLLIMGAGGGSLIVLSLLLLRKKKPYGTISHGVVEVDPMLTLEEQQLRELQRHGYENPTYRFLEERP
Nature of the assay: co-IP.

By UniProt entry, the sequences of proteins in these tests, tags left out. Residues count along the entry.
UniProt Q61790, residues 24-521: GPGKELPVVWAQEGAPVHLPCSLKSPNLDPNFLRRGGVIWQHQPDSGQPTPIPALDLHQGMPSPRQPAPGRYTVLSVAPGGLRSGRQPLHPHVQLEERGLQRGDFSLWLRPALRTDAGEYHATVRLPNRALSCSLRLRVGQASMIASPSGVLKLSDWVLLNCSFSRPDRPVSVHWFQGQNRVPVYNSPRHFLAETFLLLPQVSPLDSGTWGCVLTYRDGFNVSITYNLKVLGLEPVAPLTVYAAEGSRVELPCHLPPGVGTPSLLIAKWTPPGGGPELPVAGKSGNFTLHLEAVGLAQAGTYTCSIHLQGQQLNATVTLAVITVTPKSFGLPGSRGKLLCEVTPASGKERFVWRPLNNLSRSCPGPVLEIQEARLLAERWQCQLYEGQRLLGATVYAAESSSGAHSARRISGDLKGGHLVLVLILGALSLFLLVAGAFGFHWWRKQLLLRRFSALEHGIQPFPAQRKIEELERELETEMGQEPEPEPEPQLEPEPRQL

The target in assay [2] is T2, Aplp1, endogenous in mouse brain (mouse (endogenous in mouse brain)) (UniProt Q03157).
T2 sequence: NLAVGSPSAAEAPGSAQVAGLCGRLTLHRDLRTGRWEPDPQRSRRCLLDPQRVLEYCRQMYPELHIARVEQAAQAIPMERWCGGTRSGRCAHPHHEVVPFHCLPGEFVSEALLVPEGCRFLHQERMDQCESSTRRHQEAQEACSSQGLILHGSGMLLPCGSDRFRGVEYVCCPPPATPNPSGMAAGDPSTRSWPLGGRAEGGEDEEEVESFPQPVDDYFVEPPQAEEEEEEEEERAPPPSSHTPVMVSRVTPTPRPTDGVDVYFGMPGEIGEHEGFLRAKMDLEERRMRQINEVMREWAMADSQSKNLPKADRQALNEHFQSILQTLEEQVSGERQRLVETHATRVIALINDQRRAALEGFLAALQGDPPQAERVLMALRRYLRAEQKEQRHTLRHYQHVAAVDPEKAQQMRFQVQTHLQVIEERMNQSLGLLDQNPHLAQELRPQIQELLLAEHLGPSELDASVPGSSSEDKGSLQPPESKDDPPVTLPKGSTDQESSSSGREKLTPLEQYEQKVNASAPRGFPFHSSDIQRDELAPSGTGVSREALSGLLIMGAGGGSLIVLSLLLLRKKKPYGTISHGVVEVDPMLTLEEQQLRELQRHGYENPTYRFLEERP
Nature of the assay: co-IP.

The target in assay [3] is Lag3, endogenous in mouse brain (mouse (endogenous in mouse brain)) (UniProt Q61790). Nature of the assay: co-IP.
Assay [4] has the same target. Nature of the assay: proximity ligation.

No constants are given. Whether binding was seen depends on the method and setting. In cells and extracts the contact can be indirect. Some results given as binding are weak or reduced against the parent protein; the word gives no strength. For some of these results: Where a sequence is shown, tags or fusion partners need not be part of it.

“Lag3-Myc full-length, in HEK293FT lysate (from UniProt Q61790) (receptor)”: in assay [1], the binding result is recorded as “binds”.
On to “Lag3, endogenous in mouse brain (from UniProt Q61790)”, for which, in assay [2], the binding entry was “binds”.

B1: Aplp1, endogenous in mouse brain (protein, UniProt Q03157)
chain: NLAVGSPSAAEAPGSAQVAGLCGRLTLHRDLRTGRWEPDPQRSRRCLLDPQRVLEYCRQMYPELHIARVEQAAQAIPMERWCGGTRSGRCAHPHHEVVPFHCLPGEFVSEALLVPEGCRFLHQERMDQCESSTRRHQEAQEACSSQGLILHGSGMLLPCGSDRFRGVEYVCCPPPATPNPSGMAAGDPSTRSWPLGGRAEGGEDEEEVESFPQPVDDYFVEPPQAEEEEEEEEERAPPPSSHTPVMVSRVTPTPRPTDGVDVYFGMPGEIGEHEGFLRAKMDLEERRMRQINEVMREWAMADSQSKNLPKADRQALNEHFQSILQTLEEQVSGERQRLVETHATRVIALINDQRRAALEGFLAALQGDPPQAERVLMALRRYLRAEQKEQRHTLRHYQHVAAVDPEKAQQMRFQVQTHLQVIEERMNQSLGLLDQNPHLAQELRPQIQELLLAEHLGPSELDASVPGSSSEDKGSLQPPESKDDPPVTLPKGSTDQESSSSGREKLTPLEQYEQKVNASAPRGFPFHSSDIQRDELAPSGTGVSREALSGLLIMGAGGGSLIVLSLLLLRKKKPYGTISHGVVEVDPMLTLEEQQLRELQRHGYENPTYRFLEERP
For the molecule B1, the binding entry in assay [3] and in assay [4] was “binds” each time.
